Assay results as given in US20220118089A1 (UNIVERSITY OF CHICAGO, published 2022).
These are yes or no findings as the source states them, for the method shown. Some results given as binding are weak or reduced against the parent protein; the word gives no strength. Sequences can lack the tags named with a protein.

Amino acid sequences for entries named in this document (tags omitted). A change or cut given only in a name is not applied to a line headed by its entry. Residues count along the entry.
UniProt P02452: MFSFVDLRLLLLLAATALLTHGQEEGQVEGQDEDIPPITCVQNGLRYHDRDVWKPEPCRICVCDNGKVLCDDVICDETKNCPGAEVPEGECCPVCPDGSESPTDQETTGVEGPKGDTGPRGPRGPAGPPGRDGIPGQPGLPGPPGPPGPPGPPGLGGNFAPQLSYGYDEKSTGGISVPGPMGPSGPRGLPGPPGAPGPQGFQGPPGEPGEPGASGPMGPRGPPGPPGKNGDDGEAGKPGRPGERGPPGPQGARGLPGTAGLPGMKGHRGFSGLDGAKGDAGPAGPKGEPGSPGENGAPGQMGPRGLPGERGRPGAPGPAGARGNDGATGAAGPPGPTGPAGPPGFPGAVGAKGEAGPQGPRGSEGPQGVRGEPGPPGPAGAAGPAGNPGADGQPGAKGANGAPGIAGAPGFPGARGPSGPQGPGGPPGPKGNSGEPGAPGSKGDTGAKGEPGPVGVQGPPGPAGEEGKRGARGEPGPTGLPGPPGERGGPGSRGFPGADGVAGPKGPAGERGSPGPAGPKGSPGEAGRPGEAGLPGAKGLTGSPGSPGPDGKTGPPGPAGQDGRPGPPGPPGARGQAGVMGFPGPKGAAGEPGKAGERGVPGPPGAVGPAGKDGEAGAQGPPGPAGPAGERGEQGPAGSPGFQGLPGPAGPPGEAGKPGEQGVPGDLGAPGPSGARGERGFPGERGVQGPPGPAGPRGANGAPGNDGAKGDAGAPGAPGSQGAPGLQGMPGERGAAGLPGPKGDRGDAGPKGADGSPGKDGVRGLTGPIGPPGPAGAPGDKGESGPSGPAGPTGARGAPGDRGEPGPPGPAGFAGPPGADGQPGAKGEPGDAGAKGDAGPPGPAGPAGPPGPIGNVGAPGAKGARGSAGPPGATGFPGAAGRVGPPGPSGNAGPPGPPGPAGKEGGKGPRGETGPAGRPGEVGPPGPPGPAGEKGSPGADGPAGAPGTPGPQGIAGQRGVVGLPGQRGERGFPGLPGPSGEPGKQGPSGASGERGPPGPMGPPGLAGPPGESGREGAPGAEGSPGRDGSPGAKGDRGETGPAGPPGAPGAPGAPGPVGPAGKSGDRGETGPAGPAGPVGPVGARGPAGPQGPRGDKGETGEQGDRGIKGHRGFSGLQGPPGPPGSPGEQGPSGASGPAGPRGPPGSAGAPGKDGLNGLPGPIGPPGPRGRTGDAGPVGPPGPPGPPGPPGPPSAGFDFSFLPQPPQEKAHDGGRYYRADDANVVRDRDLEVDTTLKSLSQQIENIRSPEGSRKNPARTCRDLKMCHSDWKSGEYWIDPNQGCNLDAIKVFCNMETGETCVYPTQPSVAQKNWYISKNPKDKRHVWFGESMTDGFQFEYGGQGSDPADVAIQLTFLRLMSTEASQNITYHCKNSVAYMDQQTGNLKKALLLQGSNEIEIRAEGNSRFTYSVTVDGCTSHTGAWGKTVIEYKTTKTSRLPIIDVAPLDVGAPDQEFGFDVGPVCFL
UniProt P02461, residues 154-1221: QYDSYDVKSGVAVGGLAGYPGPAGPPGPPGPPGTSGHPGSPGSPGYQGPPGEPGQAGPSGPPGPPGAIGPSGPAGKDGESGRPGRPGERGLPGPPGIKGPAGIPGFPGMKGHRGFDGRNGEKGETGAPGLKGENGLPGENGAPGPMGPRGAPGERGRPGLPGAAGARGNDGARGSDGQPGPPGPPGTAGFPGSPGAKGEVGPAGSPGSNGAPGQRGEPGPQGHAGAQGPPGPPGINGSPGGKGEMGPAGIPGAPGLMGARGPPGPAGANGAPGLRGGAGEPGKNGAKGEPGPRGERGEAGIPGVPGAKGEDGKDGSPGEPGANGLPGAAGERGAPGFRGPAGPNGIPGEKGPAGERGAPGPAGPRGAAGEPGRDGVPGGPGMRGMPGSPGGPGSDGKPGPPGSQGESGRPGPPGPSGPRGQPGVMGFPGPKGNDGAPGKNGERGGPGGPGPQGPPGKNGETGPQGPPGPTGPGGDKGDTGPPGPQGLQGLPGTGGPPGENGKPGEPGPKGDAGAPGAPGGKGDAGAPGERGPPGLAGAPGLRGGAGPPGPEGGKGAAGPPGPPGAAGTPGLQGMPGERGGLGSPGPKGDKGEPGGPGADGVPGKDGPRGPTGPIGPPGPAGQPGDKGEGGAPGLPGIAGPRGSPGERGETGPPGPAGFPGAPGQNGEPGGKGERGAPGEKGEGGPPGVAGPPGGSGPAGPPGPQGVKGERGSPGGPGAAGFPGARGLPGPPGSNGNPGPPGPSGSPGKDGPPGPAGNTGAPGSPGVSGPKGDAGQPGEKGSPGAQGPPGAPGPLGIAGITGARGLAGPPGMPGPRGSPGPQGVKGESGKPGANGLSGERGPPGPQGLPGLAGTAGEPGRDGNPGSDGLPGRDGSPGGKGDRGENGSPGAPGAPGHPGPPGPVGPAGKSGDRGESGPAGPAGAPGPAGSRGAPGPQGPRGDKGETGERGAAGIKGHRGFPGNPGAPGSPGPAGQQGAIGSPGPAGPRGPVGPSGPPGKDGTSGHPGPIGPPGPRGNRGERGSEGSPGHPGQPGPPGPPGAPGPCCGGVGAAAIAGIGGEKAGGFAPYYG

What was measured:
[1] = target: T1, human type I collagen (Millipore Sigma) (human, UniProt P02452 162-1218; P08123 80-1119); assay: SPR (FIG. 14B)
T1 construct: treated as one molecule; also called collagen type I

[2] = target: human type III collagen (Millipore Sigma) (human) (UniProt P02461); assay: SPR (FIG. 14B)
[3] = target: T1, human type I collagen (Millipore Sigma); assay: SPR, collagen immobilised
[4] = target: human type III collagen (Millipore Sigma) (human) (UniProt P02461); assay: SPR, collagen immobilised

binding [1]: binds
binding [2]: binds
binding [3]: binds
binding [4]: binds
B1: Human VWF A3 domain (CBD), mouse serum albumin and mouse IL-10 fusion protein (other)
chain: CSQPLDVVLLLDGSSSLPESSFDKMKSFAKAFISKANIGPHLTQVSVIQYGSINTIDVPWNVVQEKAHLQSLVDLMQQEGGPSQIGDALAFAVRYVTSQIHGARPGASKAVVIIIMDTSLDPVDTAADAARSNRVAVFPVGVGDRYDEAQLRILAGPGASSNVVKLQQVEDLSTMATLGNSFFHKLCSGFSGVGGGSGGGSEAHKSEIAHRYNDLGEQHFKGLVLIAFSQYLQKCSYDEHAKLVQEVTDFAKTCVADESAANCDKSLHTLFGDKLCAIPNLRENYGELADCCTKQEPERNECFLQHKDDNPSLPPFERPEAEAMCTSFKENPTTFMGHYLHEVARRHPYFYAPELLYYAEQYNEILTQCCAEADKESCLTPKLDGVKEKALVSSVRQRMKCSSMQKFGERAFKAWAVARLSQTFPNADFAEITKLATDLTKVNKECCHGDLLECADDRAELAKYMCENQATISSKLQTCCDKPLLKKAHCLSEVEHDTMPADLPAIAADFVEDQEVCKNYAEAKDVFLGTFLYEYSRRHPDYSVSLLLRLAKKYEATLEKCCAEANPPACYGTVLAEFQPLVEEPKNLVKTNCDLYEKLGEYGFQNAILVRYTQKAPQVSTPTLVEAARNLGRVGTKCCTLPEDQRLPCVEDYLSAILNRVCLLHEKTPVSEHVTKCCSGSLVERRPCFSALTVDETYVPKEFKAETFTFHSDICTLPEKEKQIKKQTALAELVKHKPKATAEQLKTVMDDFAQFLDTCCKAADKDTCFSTEGPNLVTRCKDALAGGGSGGGSSRGQYSREDNNCTHFPVGQSHMLLELRTAFSQVKTFFQTKDQLDNILLTDSLMQDFKGYLGCQALSEMIQFYLVEVMPQAEKHGPEIKEHLNSLGEKLKTLRMRLRRCHRFLPCENKSKAVEQVKSDFNKLQDQGVYKAMNEFDIFINCIEAYMMIKMKSHHHHHH
notes: also called CBD-SA-IL-10; CBD-SA-fused IL-10
